Some test systems named below: WM115; WM1716; WM1745; WM3526; WM3619; WM451Lu.
What all share (assay): cleaved PARP positive nuclei fraction relative to DMSO control; melanoma cells; higher = more apoptosis
What all share (conditions): library dose: low library concentration; 72 h

Some of the results follow. Single values are uncertain, as repeats are few or missing.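 Imaging used 1,536-well plates; nuclei positive for cleaved PARP by antibody were divided by total DNA-stained nuclei to yield the apoptosis fraction. Doses for screening kept most cells viable, and cell lines differ markedly in resting and induced cleaved-PARP levels.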

For the compound `C[C@@H](N)c1ccc(C(=O)Nc2ccnc3[nH]ccc23)cc1` + COc1ccc(-c2ccc3c(N4CCOCC4)nc(N4C[C@@H](C)O[C@@H](C)C4)nc3n2)cc1CO [KU0063794] (first compound 0.4 µM, partner dose 0.02 µM), the “cleaved PARP positive nuclei fraction” value is 31.8% in the assay with WM115; 96.6% in the assay with WM1716; 124% in the assay on WM1745; 71.9% in the assay with WM3526; 104% in the assay with WM3619; 73.2% in the assay on WM451Lu.

As to `CCN(CC)CCNC(=O)c1c(C)[nH]c(/C=C2\C(=O)Nc3ccc(F)cc32)c1C` [sunitinib] + CN(c1ncccc1CNc1nc(Nc2ccc3c(c2)CC(=O)N3)ncc1C(F)(F)F)S(C)(=O)=O [PF562271] (first compound 0.4 µM, partner dose 0.08 µM), the “cleaved PARP positive nuclei fraction” value in the assay with WM115 came out at 153%; in the assay with WM1716, 107%; in the assay on WM1745, 146%; with WM3526, 39.5%; in the assay with WM3619, 77.9%; in the assay on WM451Lu, 65.6%.

As to `NC1(c2ccc(-c3nc4ccn5c(=O)[nH]nc5c4cc3-c3ccccc3)cc2)CCC1` + COc1ccc2c(c1)CCC1C2CCC2(C)C(NCCCCCCN3C(=O)C=CC3=O)CCC12 [U73122] (first compound 0.4 µM, partner dose 0.4 µM), the “cleaved PARP positive nuclei fraction” value turned out to be 113% with WM115; 180% in the assay with WM1716; 101% in the assay with WM1745; 141% with WM3526; 97.9% in the assay on WM3619; 73.2% with WM451Lu.

For the compound `CCCCCCCCc1ccc(CCC(N)(CO)CO)cc1` [fingolimod] + Oc1nc(-c2ccc(C(F)(F)F)cc2)nc2c1CSCC2 [XAV939] (first compound 2 µM, partner dose 2 µM), the “cleaved PARP positive nuclei fraction” value came out at 44.9% in the assay on WM115; 251% with WM1716; 132% in the assay on WM1745; 107% in the assay on WM3526; 106% in the assay on WM3619; 30% in the assay with WM451Lu.

As to `C[C@@H](N)c1ccc(C(=O)Nc2ccnc3[nH]ccc23)cc1` + CCCS(=O)(=O)Nc1ccc(F)c(C(=O)c2c[nH]c3ncc(Cl)cc23)c1F [PLX4720] (first compound 0.4 µM, partner dose 0.08 µM), the “cleaved PARP positive nuclei fraction” value in the assay with WM115 was 189%; in the assay on WM1716, 109%; in the assay with WM1745 it was 115%; with WM3526, 286%; in the assay with WM3619, 116%; in the assay on WM451Lu, 91.2%.

As to `CCN(CC)CCNC(=O)c1c(C)[nH]c(/C=C2\C(=O)Nc3ccc(F)cc32)c1C` [sunitinib] + C=CCn1c(=O)c2cnc(Nc3ccc(N4CCN(C)CC4)cc3)nc2n1-c1cccc(C(C)(C)O)n1 [MK1775] (first compound 0.4 µM, partner dose 0.02 µM), the “cleaved PARP positive nuclei fraction” value in the assay with WM115 turned out to be 112%; in the assay with WM1716 it was 64.2%; with WM1745, 114%; in the assay on WM3526, 156%; in the assay on WM3619 it was 95.7%; in the assay on WM451Lu, 56.9%.

In the case of `NC(=O)c1ccc(N(C(N)=O)c2c(F)cccc2F)nc1-c1ccc(F)cc1F` + Cc1ccc(NC(=O)c2cccc(N(C)C)c2)cc1NC(=O)c1ccc(O)cc1 [ZM336372] (first compound 0.4 µM, partner dose 2 µM), the “cleaved PARP positive nuclei fraction” value in the assay on WM115 was 66.6%; in the assay on WM1716, 97.8%; in the assay with WM1745, 107%; in the assay on WM3526 it was 73.1%; with WM3619 it was 114%; with WM451Lu it was 53.9%.

Regarding `Cn1sc(=O)n(Cc2ccccc2)c1=O` + Cc1cc(Nc2cc(N3CCN(C)CC3)nc(/C=C/c3ccccc3)n2)n[nH]1 [ENMD2076] (first compound 0.4 µM, partner dose 0.04 µM), the “cleaved PARP positive nuclei fraction” value worked out at 135% in the assay with WM115; 144% in the assay with WM1716; 78.8% in the assay with WM1745; 88% with WM3526; 99.6% in the assay with WM3619; 140% with WM451Lu.

Consider `CCN(CC)CCNC(=O)c1c(C)[nH]c(/C=C2\C(=O)Nc3ccc(F)cc32)c1C` [sunitinib] + Cc1nc(Nc2ncc(C(=O)Nc3c(C)cccc3Cl)s2)cc(N2CCN(CCO)CC2)n1 [dasatanib] (first compound 0.4 µM, partner dose 0.004 µM), for which the “cleaved PARP positive nuclei fraction” value in the assay with WM115 stood at 172%; in the assay on WM1716 it was 27.5%; in the assay with WM1745 it was 121%; in the assay on WM3526 it was 140%; with WM3619, 82.6%; with WM451Lu, 153%.

For `CS(=O)(=O)c1ccc(C(=O)Nc2ccc(Cl)c(-c3ccccn3)c2)c(Cl)c1` [vismodegib] + CN(c1ncccc1CNc1nc(Nc2ccc3c(c2)CC(=O)N3)ncc1C(F)(F)F)S(C)(=O)=O [PF562271] (first compound 1 µM, partner dose 0.08 µM), the “cleaved PARP positive nuclei fraction” value with WM115 stood at 122%; in the assay with WM1716, 216%; in the assay on WM1745 it was 353%; with WM3526, 38.9%; with WM3619 it was 87.7%; in the assay with WM451Lu, 127%.

On to `CC(=O)O[C@@]12CO[C@@H]1C[C@H](O)[C@@]1(C)C(=O)[C@H](O)C3=C(C)[C@@H](OC(=O)[C@H](O)[C@@H](NC(=O)OC(C)(C)C)c4ccccc4)C[C@@](O)([C@@H](OC(=O)c4ccccc4)[C@H]21)C3(C)C` [Docetaxel] + CCN(CC)CCCCNc1ncc2cc(-c3cc(OC)cc(OC)c3)c(NC(=O)NC(C)(C)C)nc2n1 [PD173074] (first compound 0.0001 µM, partner dose 0.1 µM), for which the “cleaved PARP positive nuclei fraction” value came to 746% with WM115; 928% in the assay with WM1716; 165% with WM1745; 161% in the assay with WM3526; 117% with WM3619; 59.6% with WM451Lu.

Take `CN(c1ncccc1CNc1nc(Nc2ccc3c(c2)CC(=O)N3)ncc1C(F)(F)F)S(C)(=O)=O` + Cn1nnc2c(C(N)=O)ncn2c1=O [temozolomide] (first compound 0.08 µM, partner dose 2 µM): the “cleaved PARP positive nuclei fraction” value was found to be 229% in the assay with WM115; 49.4% in the assay on WM1716; 108% in the assay on WM1745; 138% in the assay on WM3526; 105% in the assay on WM3619; 28.8% with WM451Lu.

In the case of `C[C@@H](N)c1ccc(C(=O)Nc2ccnc3[nH]ccc23)cc1` + Cn1c(=O)n(-c2ccc(C(C)(C)C#N)cc2)c2c3cc(-c4cnc5ccccc5c4)ccc3ncc21 [NVP-BEZ235] (first compound 0.4 µM, partner dose 0.004 µM), the “cleaved PARP positive nuclei fraction” value came to 108% in the assay with WM115; 216% with WM1716; 120% with WM1745; 89.7% in the assay on WM3526; 123% with WM3619; 193% in the assay with WM451Lu.

As to `C[C@]1(O)C[C@@H](c2nc(-c3ccc4ccc(-c5ccccc5)nc4c3)c3c(N)nccn32)C1` + O=C(O)c1ccc2c(c1)nc(Nc1cccc(Cl)c1)c1ccncc12 [CX4945] (first compound 0.4 µM, partner dose 0.4 µM), the “cleaved PARP positive nuclei fraction” value with WM115 came out at 358%; in the assay on WM1716, 249%; in the assay with WM1745, 110%; with WM3526, 103%; with WM3619, 92.3%; with WM451Lu, 101%.

For the compound `NC(=O)c1ccc(N(C(N)=O)c2c(F)cccc2F)nc1-c1ccc(F)cc1F` + N#Cc1c(O)c2c(-c3ccc(-c4ccccc4O)cc3)csc2[nH]c1=O [A769662] (first compound 0.4 µM, partner dose 2 µM), the “cleaved PARP positive nuclei fraction” value in the assay with WM115 came out at 107%; with WM1716 it was 22.7%; in the assay with WM1745, 92.5%; in the assay with WM3526, 46%; with WM3619, 82.8%; in the assay with WM451Lu, 105%.

`CN(c1ncccc1CNc1nc(Nc2ccc3c(c2)CC(=O)N3)ncc1C(F)(F)F)S(C)(=O)=O` + OCCn1cc(-c2cnc3nnn(Cc4ccc5ncccc5c4)c3n2)cn1 [PF04217903] (first compound 0.08 µM, partner dose 1 µM): the “cleaved PARP positive nuclei fraction” value was 167% with WM115; 164% in the assay on WM1716; 107% in the assay on WM1745; 57.9% in the assay on WM3526; 126% in the assay with WM3619; 916% in the assay with WM451Lu.

Consider `NC(=O)c1ccc(N(C(N)=O)c2c(F)cccc2F)nc1-c1ccc(F)cc1F` + CO[C@H]1C[C@@H]2CC[C@@H](C)[C@@](O)(O2)C(=O)C(=O)N2CCCC[C@H]2C(=O)O[C@H]([C@H](C)C[C@@H]2CC[C@@H](OCCO)[C@H](OC)C2)CC(=O)[C@H](C)/C=C(\C)[C@@H](O)[C@@H](OC)C(=O)[C@H](C)C[C@H](C)/C=C/C=C/C=C/1C [everolimus] (first compound 0.4 µM, partner dose 0.02 µM), for which the “cleaved PARP positive nuclei fraction” value with WM115 came out at 129%; in the assay on WM1716, 76.4%; in the assay with WM1745 it was 115%; in the assay with WM3526, 107%; in the assay on WM3619 it was 120%; in the assay on WM451Lu, 99%.

Regarding `CC(=O)O[C@@]12CO[C@@H]1C[C@H](O)[C@@]1(C)C(=O)[C@H](O)C3=C(C)[C@@H](OC(=O)[C@H](O)[C@@H](NC(=O)OC(C)(C)C)c4ccccc4)C[C@@](O)([C@@H](OC(=O)c4ccccc4)[C@H]21)C3(C)C` [Docetaxel] + COc1cc(N2CCC(N3CCN(C)CC3)CC2)ccc1Nc1ncc(Cl)c(Nc2ccccc2S(=O)(=O)C(C)C)n1 [NVP-TAE684] (first compound 0.0001 µM, partner dose 0.08 µM), the “cleaved PARP positive nuclei fraction” value worked out at 579% with WM115; 363% with WM1716; 167% in the assay with WM1745; 196% in the assay on WM3526; 211% with WM3619; 212% in the assay with WM451Lu.

Consider `CC1(C)CCC(c2ccc(Cl)cc2)=C(CN2CCN(c3ccc(C(=O)NS(=O)(=O)c4ccc(N[C@H](CCN5CCOCC5)CSc5ccccc5)c(S(=O)(=O)C(F)(F)F)c4)cc3)CC2)C1` + O=C(Nc1cccc(Cl)c1)Nc1ncc(CCNc2ncnc3ccsc23)s1 [SNS314] (first compound 0.4 µM, partner dose 0.0008 µM), for which the “cleaved PARP positive nuclei fraction” value with WM115 is 80.6%; in the assay with WM1716, 245%; in the assay on WM1745 it was 742%; in the assay with WM3526, 136%; with WM3619, 128%; with WM451Lu, 132%.

For the compound `CN(c1ncccc1CNc1nc(Nc2ccc3c(c2)CC(=O)N3)ncc1C(F)(F)F)S(C)(=O)=O` + O=C(O)c1ccc2c(c1)nc(Nc1cccc(Cl)c1)c1ccncc12 [CX4945] (first compound 0.08 µM, partner dose 0.4 µM), the “cleaved PARP positive nuclei fraction” value came to 101% with WM115; 80.2% in the assay on WM1716; 98.6% in the assay on WM1745; 36.6% with WM3526; 93.9% with WM3619; 110% in the assay on WM451Lu.

Take `C[C@]1(O)C[C@@H](c2nc(-c3ccc4ccc(-c5ccccc5)nc4c3)c3c(N)nccn32)C1` + Cn1nnc2c(C(N)=O)ncn2c1=O [temozolomide] (first compound 0.4 µM, partner dose 2 µM): the “cleaved PARP positive nuclei fraction” value in the assay with WM115 stood at 27.4%; in the assay with WM1716, 188%; in the assay on WM1745, 107%; in the assay with WM3526, 92.4%; in the assay with WM3619, 80.7%; in the assay with WM451Lu it was 245%.

Consider `COc1ccc(C2=N[C@@H](c3ccc(Cl)cc3)[C@@H](c3ccc(Cl)cc3)N2C(=O)N2CCNC(=O)C2)c(OC(C)C)c1` [Nutlin-3] + CCCCCCCCCCCC1=C(O)C(=O)C=C(O)C1=O [Embelin] (first compound 0.1 µM, partner dose 1.2 µM), for which the “cleaved PARP positive nuclei fraction” value in the assay with WM115 was found to be 140%; with WM1716, 71.6%; with WM1745, 81.8%; in the assay with WM3526 it was 68.6%; with WM3619 it was 75%; in the assay with WM451Lu, 111%.

Source of the values: the supplement of paper PMC4604168 (melanoma cell lines).
